# Test results as given in PMC2873443.
# Sequences of proteins named here, by UniProt entry; tags and fusion partners are left off.
# UniProt Q04206, whole entry: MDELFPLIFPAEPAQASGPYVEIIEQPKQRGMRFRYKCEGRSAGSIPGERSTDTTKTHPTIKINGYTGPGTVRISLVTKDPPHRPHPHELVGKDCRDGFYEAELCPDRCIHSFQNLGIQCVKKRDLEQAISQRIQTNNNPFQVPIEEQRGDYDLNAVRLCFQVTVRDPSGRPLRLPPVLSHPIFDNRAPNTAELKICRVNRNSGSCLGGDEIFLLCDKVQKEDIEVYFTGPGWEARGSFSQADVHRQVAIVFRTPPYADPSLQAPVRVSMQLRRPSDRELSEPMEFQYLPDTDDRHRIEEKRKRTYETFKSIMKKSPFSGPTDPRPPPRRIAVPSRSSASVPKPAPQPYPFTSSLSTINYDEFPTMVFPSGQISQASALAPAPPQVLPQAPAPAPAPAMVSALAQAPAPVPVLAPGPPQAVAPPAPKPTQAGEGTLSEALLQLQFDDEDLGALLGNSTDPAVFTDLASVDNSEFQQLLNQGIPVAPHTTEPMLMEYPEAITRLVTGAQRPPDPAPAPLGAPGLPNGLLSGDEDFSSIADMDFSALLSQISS
# The exact form of at least one protein or probe is not confirmed. Results from cells or extracts need not show a direct contact. For some assays here: Tags and fusion partners may be left off the protein sequences shown.
# Columns and labels:
# NF-kB p50 homodimer = target: T1, NF-kB p50 homodimer (UniProt P19838); assay: EMSA supershift; settings: nuclear extract, basal and PMA-induced; EMSA: nuclear extract incubated 25 min with 32P probe; 6% PAGE, 0.5x TBE pH 8; temperature and salt not stated; protein in an extract; label: 32P (Klenow, [alpha-32P]-dCTP)
# T1 sequence (looked up, limits assumed): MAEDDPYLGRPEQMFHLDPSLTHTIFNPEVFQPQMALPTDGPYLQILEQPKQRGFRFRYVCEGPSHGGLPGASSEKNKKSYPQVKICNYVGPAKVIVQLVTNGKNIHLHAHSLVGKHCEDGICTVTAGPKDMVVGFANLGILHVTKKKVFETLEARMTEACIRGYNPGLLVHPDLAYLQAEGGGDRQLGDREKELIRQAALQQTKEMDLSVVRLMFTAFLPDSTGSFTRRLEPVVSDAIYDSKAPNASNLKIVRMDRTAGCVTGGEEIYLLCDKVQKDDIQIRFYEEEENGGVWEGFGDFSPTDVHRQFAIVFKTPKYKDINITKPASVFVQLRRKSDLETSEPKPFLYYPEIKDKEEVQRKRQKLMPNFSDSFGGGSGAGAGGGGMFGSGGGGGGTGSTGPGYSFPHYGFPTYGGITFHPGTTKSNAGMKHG
# [1] = target: NF-kB p65 (RelA) homodimer (UniProt Q04206); assay: EMSA supershift; settings: nuclear extract, PMA 0.1 ug/ml 30 min, stronger in K562 than K562/Adr; EMSA: nuclear extract incubated 25 min with 32P probe; 6% PAGE, 0.5x TBE pH 8; temperature and salt not stated; protein in an extract; label: 32P (Klenow, [alpha-32P]-dCTP)
sequence,measurement,setting,value
AGCTATGTGGGTTTTCCCATGAGC (double strand) [IL6 promoter NF-kB oligonucleotide],binding result,NF-kB p50 homodimer,binds
same,binding result,[1],binds
